Assay results reported in the supplement of paper PMC7877785.
± gives the uncertainty stated by the source. Many of these values have a large error.

Experiment: self-splicing fitness, log relative to wild type (ln ratio); higher = more splicing; Tetrahymena group I intron in knt gene, E. coli kanamycin selection, DiMSum; sequences stand for … in CUCUCU…GGAGGGAAAAGUUAUCAGGCAUGCACCUGGUAGCUAGUCUUUAAACCAAUAGAUUGCAUCGGUUUAAAAGGCAAGACCGUCAAAUUGCGGGAAAGGGGUCAACAGCCGUUCAGUACCAAGUCUCAGGGGAAACUUUGAGAUGGCCUUGCAAAGGGUAUGGUAAUAAGCUGACGGACAUGGUCCUAACCACGCAGCCAAGUCCUAAGUCAACAGAUCUUCUGUUGAUAUGGAUGCAGUUCACAGACUAAAUGUCGGUCGGGGAAGAUGUAUUCUUCUCAUAAGAUAUAGUCGGACCUCUCCUUAAUGGGAGCUAGCGGAUGAAGUGAUGCAACACUGGAGCCGCUGGGAACUAAUUUGUAUGCGAAAGUAUAUUGAUUAGUUUUGGAGUACUCGUGGUCG
Procedure, shortened: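 Fitness was computed with DiMSum as the error-weighted combination of replicate fold changes, kanamycin versus none, each normalised to wild type. The library randomised all eight intron nucleotides of the P1ex region, with the intron placed in the knt kanamycin-resistance gene on pET-22b(+) in E. coli BL21(DE3). Six replicate transformations were grown overnight at 37°C or 30°C on LB agar with or without 25 μg/mL kanamycin, plus 100 μg/mL carbenicillin, 50 μM IPTG and 0.2% rhamnose. Pooled colonies were amplicon-sequenced on an Illumina HiSeq 2500.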

| Sequence | self-splicing fitness (ln) (30 °C) | self-splicing fitness (ln) (37 °C) |
| --- | --- | --- |
| UCAGAGCAAUAUUACGCUAA | -3 ± 0.58 |  |
| GGUGAGCAAUAUUACGAAUC | -2.87 ± 0.56 |  |
| GUUGAGCAAUAUUACGUCCG |  | -1.5 ± 0.69 |
| AUUGAGCAAUAUUACGGACA |  | -2.92 ± 0.53 |
| CGUGAGCAAUAUUACGGUAA | -4.91 ± 0.51 |  |
| UCGGAGCAAUAUUACGCUUC | -3.84 ± 0.62 | -1.88 ± 0.82 |
| GAGGAGCAAUAUUACGCUUU | -4.66 ± 1 | -2.06 ± 0.41 |
| AUCGAGCAAUAUUACGAGAC |  | -2.65 ± 0.63 |
| UGGGAGCAAUAUUACGCCGC |  | -0.886 ± 0.93 |
| AAGGAGCAAUAUUACGCAAC | -3.63 ± 0.54 | -1.9 ± 0.6 |
| UCAUAGCAAUAUUACGUCAA |  | -3.28 ± 0.52 |
| ACUCAGCAAUAUUACGCGGC |  | -4.44 ± 0.51 |
| CCUUAGCAAUAUUACGGCCU | -4.17 ± 1.1 |  |
| CGGUAGCAAUAUUACGAGCC | -2.86 ± 0.66 | -0.693 ± 1.4 |
| ACCUAGCAAUAUUACGCAUG | -2.27 ± 0.15 | -1.42 ± 0.14 |
| CAGUAGCAAUAUUACGAUAA |  | -3.58 ± 0.59 |
| UGGGAGCAAUAUUACGCGUU | -2.33 ± 0.28 | -2.02 ± 0.44 |
| CAGGAGCAAUAUUACGGCGG | -0.542 ± 0.074 | -0.0448 ± 0.091 |
| GAGGAGCAAUAUUACGGUUC | -4.35 ± 0.52 |  |
| UCUAAGCAAUAUUACGUUUA | -3.99 ± 0.73 |  |
| UGUUAGCAAUAUUACGAGAU | -3.59 ± 0.52 |  |
| GGUUAGCAAUAUUACGCUAA |  | -2 ± 0.51 |
| UGAUAGCAAUAUUACGACCC | -0.747 ± 0.54 | -0.73 ± 1 |
| CAGGAGCAAUAUUACGCGAC | -2.82 ± 0.76 | -0.754 ± 0.54 |
| UCGAAGCAAUAUUACGUGCC |  | -2.77 ± 1.1 |

Quoted from the entries so far (eleven entries):

| Sequence | self-splicing fitness (ln) (30 °C) | self-splicing fitness (ln) (37 °C) |
| --- | --- | --- |
| GGUGAGCAAUAUUACGAAUC | -2.87 ± 0.56 |  |
| GUUGAGCAAUAUUACGUCCG |  | -1.5 ± 0.69 |
| AUUGAGCAAUAUUACGGACA |  | -2.92 ± 0.53 |
| CGUGAGCAAUAUUACGGUAA | -4.91 ± 0.51 |  |
| UCGGAGCAAUAUUACGCUUC | -3.84 ± 0.62 | -1.88 ± 0.82 |
| GAGGAGCAAUAUUACGCUUU | -4.66 ± 1 | -2.06 ± 0.41 |
| AUCGAGCAAUAUUACGAGAC |  | -2.65 ± 0.63 |
| UGGGAGCAAUAUUACGCCGC |  | -0.886 ± 0.93 |
| AAGGAGCAAUAUUACGCAAC | -3.63 ± 0.54 | -1.9 ± 0.6 |
| UCAUAGCAAUAUUACGUCAA |  | -3.28 ± 0.52 |
| ACUCAGCAAUAUUACGCGGC |  | -4.44 ± 0.51 |

Continued.

| Sequence | self-splicing fitness (ln) (30 °C) | self-splicing fitness (ln) (37 °C) |
| --- | --- | --- |
| CGAAAGCAAUAUUACGGUAC |  | -3.54 ± 0.73 |
| GGUGAGCAAUAUUACGCACG | -1.27 ± 1.4 |  |
| AUUUAGCAAUAUUACGCCAA | -2.09 ± 1.4 | -0.595 ± 1.4 |
| ACUUAGCAAUAUUACGCACG | -1.55 ± 0.1 | -0.683 ± 0.13 |
| CUCGAGCAAUAUUACGCGGG |  | -3.42 ± 0.6 |
| CAAGAGCAAUAUUACGCAGC | -3.83 ± 0.73 | -2.07 ± 0.79 |
| CAGGAGCAAUAUUACGCCAC | -2.97 ± 0.53 | -1.9 ± 0.52 |
| AACCAGCAAUAUUACGUUAG | -3.68 ± 0.11 | -2.44 ± 0.11 |
| GGAGAGCAAUAUUACGCCUG |  | -1.88 ± 1.2 |
| UUUCAGCAAUAUUACGUAGC |  | -1.69 ± 0.53 |
| UUAGAGCAAUAUUACGGUUU | -4.57 ± 1 | -2.08 ± 0.66 |
| UGUAAGCAAUAUUACGGUAU | -4.54 ± 0.72 |  |
| AAGGAGCAAUAUUACGACCG |  | -2.29 ± 0.56 |
| UAGGAGCAAUAUUACGAUAA |  | -1 ± 0.78 |
| CACUAGCAAUAUUACGAAAC | -3.53 ± 0.6 | -3.29 ± 0.6 |
| CAACAGCAAUAUUACGCCCC | -0.755 ± 0.73 |  |
| AUUCAGCAAUAUUACGAGUA | -1.81 ± 0.2 | -1.24 ± 0.18 |
| UCUCAGCAAUAUUACGCCGA | -4.4 ± 0.73 |  |
| GACGAGCAAUAUUACGAAGA |  | -3.18 ± 0.52 |
| GACUAGCAAUAUUACGACAU | -0.511 ± 0.012 | -0.122 ± 0.032 |
| CCGUAGCAAUAUUACGGACG |  | -1.14 ± 0.82 |
| UCGGAGCAAUAUUACGGACA | -1.52 ± 0.87 |  |
| CCUCAGCAAUAUUACGAUCC |  | -3.23 ± 0.74 |
| AUCGAGCAAUAUUACGGUUC |  | -3.13 ± 0.74 |
| AGCGAGCAAUAUUACGAAAC | -2.08 ± 0.8 | -3.39 ± 0.73 |
